# Source: patent publication US9393199B2, “Methods and compositions for localized agent delivery” (Massachusetts Institute of Technology, priority 2008, dated 2016)
# At least one compound was matched to its structure with a doubt left.
# Assay: Release of TLR7/8 compounds from lipid-coated PLGA nanoparticles (fluorescence 260/340 nm)
# Format: physicochemical
# Conditions: water, room temperature
smiles,measurement,value
CCOCc1nc2c(N)nc3ccccc3c2n1CC(C)(C)O [resiquimod],continuous release from nanoparticles observed over,8 days
